Reference: PMC7862700
Some of the results follow. The exact form of the protein is not confirmed.

Biological target: T1, ETS1 (UniProt P14921)
T1 sequence: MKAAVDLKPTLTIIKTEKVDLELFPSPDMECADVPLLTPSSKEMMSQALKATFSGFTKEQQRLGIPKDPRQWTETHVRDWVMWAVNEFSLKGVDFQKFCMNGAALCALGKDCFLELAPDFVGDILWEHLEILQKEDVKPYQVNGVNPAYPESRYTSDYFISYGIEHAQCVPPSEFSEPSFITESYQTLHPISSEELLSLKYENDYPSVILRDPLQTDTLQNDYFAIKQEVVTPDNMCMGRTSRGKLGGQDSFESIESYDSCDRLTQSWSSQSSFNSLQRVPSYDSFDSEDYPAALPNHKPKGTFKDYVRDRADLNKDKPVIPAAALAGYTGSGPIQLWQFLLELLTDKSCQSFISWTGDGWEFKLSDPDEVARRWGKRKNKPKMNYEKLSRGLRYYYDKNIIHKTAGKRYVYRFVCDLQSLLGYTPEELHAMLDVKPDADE
Experiment: DAPPL (digital affinity profiling via proximity ligation, sequencing)
Conditions: 10 mM Tris-HCl pH 7.5, 50 mM NaCl, 1 mM DTT, 4% glycerol, room temperature, 30 min; GST-TFs on glutathione beads, 16-mer random dsDNA library, 0.1% …; high values mean tight binding; double strand, one strand shown; scale: fold enrichment (6-mer frequency, TF over GST control)

Row | Sequence | binding signal
1 | TACCCT | 1.41
2 | ACTCCC | 1.35
3 | CACCAT | 1.03
4 | TTCGTA | 1.4
5 | CCCGAC | 1.32
6 | CCCTAC | 1.47
7 | TTCTCA | 1.32
8 | ATTCAG | 1.2
9 | ATTGCT | 1.22
10 | ATCATA | 1.09
11 | ATAACT | 1.24
12 | ATGCAC | 1.23
13 | TATGTA | 1.42
14 | TCTAAA | 1.18
15 | TCGATC | 1.2
16 | GAAGCA | 1.26
17 | TGCTAT | 1.44
18 | TTTTAC | 1.44
19 | CATACT | 1.39
20 | TTGATA | 1.19

7 entries from above, as a markdown table:

| Row | Sequence | binding signal |
| --- | --- | --- |
| 5 | CCCGAC | 1.32 |
| 8 | ATTCAG | 1.2 |
| 9 | ATTGCT | 1.22 |
| 10 | ATCATA | 1.09 |
| 13 | TATGTA | 1.42 |
| 14 | TCTAAA | 1.18 |
| 20 | TTGATA | 1.19 |

The list goes on:

Row | Sequence | binding signal
21 | CTTCAA | 1.38
22 | GATGAA | 1.26
23 | GATGGC | 1.47
24 | GGTTTC | 1.53
25 | TTAAAG | 1.18
26 | AGCTCC | 1.24
27 | CCCATG | 0.988
28 | ACGTTC | 1.31
29 | TATAAC | 1.17
30 | AACAAT | 1.36
31 | ATCAAT | 1.03
32 | GTCTAC | 1.09
33 | ACTTAT | 1.32
34 | CTCTTT | 1.42
35 | ACATTG | 1.11
36 | CTTTCA | 1.34
37 | AACACA | 1.44
38 | GTTGCA | 1.19
39 | GTGCTT | 1.3
